Literature values, collected in publication PMC5974124, “Equilibrium Thermodynamics, Formation, and Dissociation Kinetics of Trivalent Iron and Gallium Complexes of Triazacyclononane-Triphosphinate (TRAP) Chelators: Unraveling the Foundations of Highly Selective Ga-68 Labeling” (Frontiers in Chemistry, 2018).

Set-up: method as in Simecek et al., [2013]; Simecek et al., [2014]
Settings: threefold stoichiometric excess of Fe^III over chelator, ref Simecek et al., [2013], [2014]; cited from earlier work

SMILES: O=C(O)CCP(=O)(O)CN1CCN(CP(=O)(O)CO)CCN(CP(=O)(O)CO)CC1 [NOPO]
- ^68Ga incorporation in presence of Fe^III: did not result in a significant decrease

SMILES: O=C(O)CN1CCN(CC(=O)O)CCN(CC(=O)O)CC1 [NOTA^3−, 1,4,7-triazacyclononane-1,4,7-triacetic acid]
- ^68Ga incorporation in presence of Fe^III: almost completely inhibited
